According to publication PMC2908540:
These are yes or no findings as the source states them, for the method shown. Binding calls can cover weak binding; strength is not graded here. For part of these data: Binding seen in cells or lysates may run through a third protein.

T1: CRTR-1 (mouse) (UniProt Q3UNW5)
T1 sequence: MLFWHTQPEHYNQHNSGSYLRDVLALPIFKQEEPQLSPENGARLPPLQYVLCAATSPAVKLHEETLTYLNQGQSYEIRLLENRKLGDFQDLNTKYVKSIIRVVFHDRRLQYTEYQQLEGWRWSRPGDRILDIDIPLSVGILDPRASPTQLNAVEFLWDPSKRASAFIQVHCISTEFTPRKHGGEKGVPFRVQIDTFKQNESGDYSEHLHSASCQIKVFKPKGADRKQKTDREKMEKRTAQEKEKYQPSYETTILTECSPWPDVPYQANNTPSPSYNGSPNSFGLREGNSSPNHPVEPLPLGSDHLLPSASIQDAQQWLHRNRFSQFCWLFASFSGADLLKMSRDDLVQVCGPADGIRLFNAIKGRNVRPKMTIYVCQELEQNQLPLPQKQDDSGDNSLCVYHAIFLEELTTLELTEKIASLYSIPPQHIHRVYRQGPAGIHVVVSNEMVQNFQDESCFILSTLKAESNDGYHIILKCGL


Assays:
CRTR-1 (mouse) = molecular target: T1, CRTR-1 (mouse); test: co-IP; reciprocal: HEK293T co-transfected with CRTR-1 and a FLAG-tagged CP2 family member; whole cell lysate precipitated with anti-CRTR-1 antibody and protein-A agarose, 4°C; blotted with anti-FLAG (Figure 3B)
FLAG-NF2d9 (mouse) [1] = test: co-IP; HEK293T co-transfected with CRTR-1 and a FLAG-tagged CP2 family member; whole cell lysate (50 mM Tris-HCl pH 7.5, 150 mM NaCl, 10% glycerol, 1% Triton X-100, 10 mM EDTA) precipitated with anti-FLAG M2 and protein-A agarose, 4°C; blotted with anti-CRTR-1 (Figure 3A)
FLAG-NF2d9 (mouse) [2] = test: native gel or EMSA; nuclear extracts of HEK293T over-expressing CRTR-1 and a CP2 family member, FAM-labelled alpha-globin CP2 response element probe, 4% native polyacrylamide gel, room temperature; heteromer seen as a complex of intermediate mobility on DNA, super-shift with anti-CRTR-1

| binding (CRTR-1 (mouse)) | binding (FLAG-NF2d9 (mouse) [1]) | binding (FLAG-NF2d9 (mouse) [2]) | Molecule |
| --- | --- | --- | --- |
| binds |  |  | FLAG-NF2d9 (mouse) |
|  | binds | binds | CRTR-1 (protein, UniProt Q3UNW5 1-479) MLFWHTQPEHYNQHNSGSYLRDVLALPIFKQEEPQLSPENGARLPPLQYVLCAATSPAVKLHEETLTYLNQGQSYEIRLLENRKLGDFQDLNTKYVKSIIRVVFHDRRLQYTEYQQLEGWRWSRPGDRILDIDIPLSVGILDPRASPTQLNAVEFLWDPSKRASAFIQVHCISTEFTPRKHGGEKGVPFRVQIDTFKQNESGDYSEHLHSASCQIKVFKPKGADRKQKTDREKMEKRTAQEKEKYQPSYETTILTECSPWPDVPYQANNTPSPSYNGSPNSFGLREGNSSPNHPVEPLPLGSDHLLPSASIQDAQQWLHRNRFSQFCWLFASFSGADLLKMSRDDLVQVCGPADGIRLFNAIKGRNVRPKMTIYVCQELEQNQLPLPQKQDDSGDNSLCVYHAIFLEELTTLELTEKIASLYSIPPQHIHRVYRQGPAGIHVVVSNEMVQNFQDESCFILSTLKAESNDGYHIILKCGL |
